# According to the supplement of paper PMC12823440, “Inhibitors supercharge kinase turnover through native proteolytic circuits” (Nature, 2025):
# Protein sequences, listed by entry. Tags and fused reporters are not part of them. Lines headed by an entry give the natural chain unless they say otherwise; changes in a name come on top.
# UniProt Q9BRS2: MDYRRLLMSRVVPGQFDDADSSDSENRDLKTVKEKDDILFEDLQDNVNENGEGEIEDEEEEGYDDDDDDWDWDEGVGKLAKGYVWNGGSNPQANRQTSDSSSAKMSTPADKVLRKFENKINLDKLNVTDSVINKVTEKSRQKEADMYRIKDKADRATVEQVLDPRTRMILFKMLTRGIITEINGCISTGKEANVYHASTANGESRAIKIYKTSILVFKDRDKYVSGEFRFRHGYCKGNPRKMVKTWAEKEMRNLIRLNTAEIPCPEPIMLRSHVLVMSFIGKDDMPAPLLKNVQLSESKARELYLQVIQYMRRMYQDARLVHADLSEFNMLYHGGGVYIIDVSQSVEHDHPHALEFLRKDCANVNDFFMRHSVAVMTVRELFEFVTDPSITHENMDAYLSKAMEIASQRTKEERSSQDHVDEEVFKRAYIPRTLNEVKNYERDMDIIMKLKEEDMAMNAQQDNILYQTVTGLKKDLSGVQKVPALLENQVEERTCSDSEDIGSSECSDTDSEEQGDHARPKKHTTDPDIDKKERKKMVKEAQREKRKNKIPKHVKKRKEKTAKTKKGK
# UniProt Q01974, whole entry: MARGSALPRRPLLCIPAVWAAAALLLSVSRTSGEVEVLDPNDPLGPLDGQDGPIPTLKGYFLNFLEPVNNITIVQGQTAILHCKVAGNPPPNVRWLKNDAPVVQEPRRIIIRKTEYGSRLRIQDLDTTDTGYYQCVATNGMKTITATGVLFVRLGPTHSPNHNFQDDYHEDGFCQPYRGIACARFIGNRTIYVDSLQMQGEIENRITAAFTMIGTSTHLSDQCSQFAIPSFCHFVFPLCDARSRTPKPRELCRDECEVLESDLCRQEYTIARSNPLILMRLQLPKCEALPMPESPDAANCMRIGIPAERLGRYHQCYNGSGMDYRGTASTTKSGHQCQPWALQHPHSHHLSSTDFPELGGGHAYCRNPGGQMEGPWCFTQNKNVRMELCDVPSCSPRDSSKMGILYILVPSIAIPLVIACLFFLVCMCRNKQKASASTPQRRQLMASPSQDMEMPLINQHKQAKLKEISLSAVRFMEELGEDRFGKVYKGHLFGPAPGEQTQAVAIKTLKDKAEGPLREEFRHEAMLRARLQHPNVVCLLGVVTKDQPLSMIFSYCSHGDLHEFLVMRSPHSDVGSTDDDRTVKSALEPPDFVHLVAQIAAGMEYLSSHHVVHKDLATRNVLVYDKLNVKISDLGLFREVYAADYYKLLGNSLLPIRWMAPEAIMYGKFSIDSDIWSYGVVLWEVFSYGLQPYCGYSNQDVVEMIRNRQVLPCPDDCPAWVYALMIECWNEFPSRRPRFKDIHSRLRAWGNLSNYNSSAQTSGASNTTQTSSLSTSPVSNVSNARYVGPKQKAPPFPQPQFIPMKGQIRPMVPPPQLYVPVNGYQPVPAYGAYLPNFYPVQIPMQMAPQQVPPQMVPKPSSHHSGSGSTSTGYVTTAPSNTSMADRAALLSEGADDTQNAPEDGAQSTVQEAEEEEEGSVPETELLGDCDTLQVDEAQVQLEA
# UniProt Q15418, whole entry: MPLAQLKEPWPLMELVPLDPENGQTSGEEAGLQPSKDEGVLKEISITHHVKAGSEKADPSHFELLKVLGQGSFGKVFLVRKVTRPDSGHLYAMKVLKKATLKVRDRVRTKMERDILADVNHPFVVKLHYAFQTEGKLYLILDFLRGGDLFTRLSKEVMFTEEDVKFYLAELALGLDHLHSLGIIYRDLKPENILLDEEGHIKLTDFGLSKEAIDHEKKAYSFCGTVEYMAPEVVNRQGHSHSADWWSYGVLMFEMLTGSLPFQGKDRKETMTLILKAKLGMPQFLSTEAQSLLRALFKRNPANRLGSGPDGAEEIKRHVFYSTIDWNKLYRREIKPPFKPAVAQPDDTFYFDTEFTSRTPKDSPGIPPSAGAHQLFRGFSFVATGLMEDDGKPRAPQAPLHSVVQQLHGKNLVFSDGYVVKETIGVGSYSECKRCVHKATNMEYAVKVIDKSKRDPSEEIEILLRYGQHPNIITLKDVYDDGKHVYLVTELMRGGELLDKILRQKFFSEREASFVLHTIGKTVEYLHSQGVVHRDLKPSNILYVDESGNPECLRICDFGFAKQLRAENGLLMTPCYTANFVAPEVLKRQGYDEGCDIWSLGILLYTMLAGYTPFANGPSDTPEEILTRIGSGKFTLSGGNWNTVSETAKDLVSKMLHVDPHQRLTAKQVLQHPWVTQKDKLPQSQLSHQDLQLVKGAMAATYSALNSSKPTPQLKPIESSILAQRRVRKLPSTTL
# UniProt Q15208: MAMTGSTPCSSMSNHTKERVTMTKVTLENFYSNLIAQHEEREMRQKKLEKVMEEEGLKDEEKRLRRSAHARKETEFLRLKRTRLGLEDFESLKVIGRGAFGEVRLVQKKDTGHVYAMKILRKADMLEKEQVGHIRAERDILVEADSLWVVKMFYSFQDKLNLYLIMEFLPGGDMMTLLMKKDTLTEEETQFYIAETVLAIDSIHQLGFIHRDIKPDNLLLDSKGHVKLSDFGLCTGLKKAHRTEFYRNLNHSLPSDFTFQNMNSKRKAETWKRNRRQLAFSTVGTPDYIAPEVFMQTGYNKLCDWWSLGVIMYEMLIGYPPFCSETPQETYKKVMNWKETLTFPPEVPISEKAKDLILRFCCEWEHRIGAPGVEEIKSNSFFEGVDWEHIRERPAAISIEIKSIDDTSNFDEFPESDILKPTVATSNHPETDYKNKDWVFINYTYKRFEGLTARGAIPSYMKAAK
# UniProt P42680: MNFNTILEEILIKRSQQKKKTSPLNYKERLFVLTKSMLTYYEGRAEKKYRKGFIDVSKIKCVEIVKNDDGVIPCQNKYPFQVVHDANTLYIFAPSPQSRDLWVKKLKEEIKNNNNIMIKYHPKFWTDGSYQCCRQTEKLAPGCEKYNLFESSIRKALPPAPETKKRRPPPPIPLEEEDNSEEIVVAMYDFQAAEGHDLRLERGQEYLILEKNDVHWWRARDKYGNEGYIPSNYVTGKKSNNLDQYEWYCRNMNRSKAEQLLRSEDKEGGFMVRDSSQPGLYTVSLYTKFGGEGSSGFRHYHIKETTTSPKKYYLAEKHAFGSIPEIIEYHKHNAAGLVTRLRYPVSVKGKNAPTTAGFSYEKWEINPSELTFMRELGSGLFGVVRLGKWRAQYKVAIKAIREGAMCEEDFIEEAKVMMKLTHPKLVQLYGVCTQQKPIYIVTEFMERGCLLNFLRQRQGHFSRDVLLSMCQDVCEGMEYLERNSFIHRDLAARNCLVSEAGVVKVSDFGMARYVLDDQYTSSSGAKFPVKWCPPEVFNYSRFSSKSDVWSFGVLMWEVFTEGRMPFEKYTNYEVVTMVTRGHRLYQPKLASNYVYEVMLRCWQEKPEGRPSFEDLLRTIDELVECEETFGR
# UniProt Q6PHR2: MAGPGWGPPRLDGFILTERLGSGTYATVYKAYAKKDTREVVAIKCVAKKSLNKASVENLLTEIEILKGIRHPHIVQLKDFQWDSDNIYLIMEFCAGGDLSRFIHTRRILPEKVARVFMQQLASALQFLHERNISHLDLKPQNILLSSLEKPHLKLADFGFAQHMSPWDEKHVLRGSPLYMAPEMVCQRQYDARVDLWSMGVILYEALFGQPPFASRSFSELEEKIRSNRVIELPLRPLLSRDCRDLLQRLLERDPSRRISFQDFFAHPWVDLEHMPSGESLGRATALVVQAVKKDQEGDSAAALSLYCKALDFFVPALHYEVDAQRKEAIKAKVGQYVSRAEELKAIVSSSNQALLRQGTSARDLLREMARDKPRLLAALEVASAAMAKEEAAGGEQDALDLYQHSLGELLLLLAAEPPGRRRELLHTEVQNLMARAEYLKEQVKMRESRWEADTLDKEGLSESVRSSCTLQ
# UniProt P07947, whole entry, looked up: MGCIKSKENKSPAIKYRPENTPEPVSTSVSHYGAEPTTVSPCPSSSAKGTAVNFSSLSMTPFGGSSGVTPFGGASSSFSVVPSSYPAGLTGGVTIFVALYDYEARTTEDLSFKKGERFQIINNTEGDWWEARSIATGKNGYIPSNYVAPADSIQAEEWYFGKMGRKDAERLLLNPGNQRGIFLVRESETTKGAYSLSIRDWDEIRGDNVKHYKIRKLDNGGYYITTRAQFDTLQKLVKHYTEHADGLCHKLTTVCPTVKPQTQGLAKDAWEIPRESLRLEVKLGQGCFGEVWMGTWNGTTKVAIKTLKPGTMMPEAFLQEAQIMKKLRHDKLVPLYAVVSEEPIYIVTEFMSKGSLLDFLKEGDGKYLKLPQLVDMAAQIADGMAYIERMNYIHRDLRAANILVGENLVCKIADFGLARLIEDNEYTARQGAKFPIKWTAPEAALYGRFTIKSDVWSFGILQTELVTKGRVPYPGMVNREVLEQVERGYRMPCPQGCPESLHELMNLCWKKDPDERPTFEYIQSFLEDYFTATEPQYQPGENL
# UniProt P43403: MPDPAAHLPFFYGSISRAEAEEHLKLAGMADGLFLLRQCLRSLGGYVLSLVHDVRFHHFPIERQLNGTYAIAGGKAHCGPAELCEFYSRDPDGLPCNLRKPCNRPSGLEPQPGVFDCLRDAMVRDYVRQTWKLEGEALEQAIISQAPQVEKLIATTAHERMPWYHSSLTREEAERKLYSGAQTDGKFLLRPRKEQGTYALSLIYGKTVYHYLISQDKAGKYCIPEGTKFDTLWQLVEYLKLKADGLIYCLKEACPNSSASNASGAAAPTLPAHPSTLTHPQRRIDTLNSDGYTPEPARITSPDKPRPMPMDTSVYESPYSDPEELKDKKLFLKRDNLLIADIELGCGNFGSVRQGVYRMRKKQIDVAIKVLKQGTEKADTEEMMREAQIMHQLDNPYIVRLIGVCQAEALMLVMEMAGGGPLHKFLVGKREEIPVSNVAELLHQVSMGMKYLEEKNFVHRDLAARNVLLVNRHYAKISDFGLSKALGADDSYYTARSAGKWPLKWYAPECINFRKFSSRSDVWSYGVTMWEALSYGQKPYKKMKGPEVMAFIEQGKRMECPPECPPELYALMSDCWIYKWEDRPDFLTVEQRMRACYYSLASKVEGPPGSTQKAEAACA
# UniProt P00519, whole entry: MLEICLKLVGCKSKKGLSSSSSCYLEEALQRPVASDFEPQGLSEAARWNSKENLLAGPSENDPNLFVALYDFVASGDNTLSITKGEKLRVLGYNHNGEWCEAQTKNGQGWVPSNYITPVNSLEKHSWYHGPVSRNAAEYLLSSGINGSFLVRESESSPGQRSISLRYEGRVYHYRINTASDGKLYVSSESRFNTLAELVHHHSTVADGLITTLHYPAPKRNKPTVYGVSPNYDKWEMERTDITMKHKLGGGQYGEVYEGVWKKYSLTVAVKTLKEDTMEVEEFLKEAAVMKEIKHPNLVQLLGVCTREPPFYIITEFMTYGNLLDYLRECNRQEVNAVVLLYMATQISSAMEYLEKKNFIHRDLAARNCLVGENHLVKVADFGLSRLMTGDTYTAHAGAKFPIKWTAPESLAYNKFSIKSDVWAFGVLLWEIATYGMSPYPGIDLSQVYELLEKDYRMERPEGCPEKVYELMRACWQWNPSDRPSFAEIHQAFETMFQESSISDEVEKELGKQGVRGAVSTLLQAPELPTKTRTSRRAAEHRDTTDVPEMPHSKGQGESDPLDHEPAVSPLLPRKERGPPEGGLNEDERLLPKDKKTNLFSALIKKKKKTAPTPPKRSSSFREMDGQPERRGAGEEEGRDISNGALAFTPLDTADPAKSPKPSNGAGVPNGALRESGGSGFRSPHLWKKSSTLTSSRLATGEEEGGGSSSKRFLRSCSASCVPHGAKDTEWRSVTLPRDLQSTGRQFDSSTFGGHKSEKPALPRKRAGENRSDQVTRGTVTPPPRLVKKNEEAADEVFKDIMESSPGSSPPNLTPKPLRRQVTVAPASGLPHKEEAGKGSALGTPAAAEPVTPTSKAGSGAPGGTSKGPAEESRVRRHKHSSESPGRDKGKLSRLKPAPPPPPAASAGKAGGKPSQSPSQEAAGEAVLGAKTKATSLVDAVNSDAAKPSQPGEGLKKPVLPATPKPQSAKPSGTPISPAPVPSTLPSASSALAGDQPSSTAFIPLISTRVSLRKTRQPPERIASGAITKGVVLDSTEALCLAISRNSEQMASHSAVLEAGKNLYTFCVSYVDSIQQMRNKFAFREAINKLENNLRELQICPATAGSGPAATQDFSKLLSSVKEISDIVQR
# UniProt P31749: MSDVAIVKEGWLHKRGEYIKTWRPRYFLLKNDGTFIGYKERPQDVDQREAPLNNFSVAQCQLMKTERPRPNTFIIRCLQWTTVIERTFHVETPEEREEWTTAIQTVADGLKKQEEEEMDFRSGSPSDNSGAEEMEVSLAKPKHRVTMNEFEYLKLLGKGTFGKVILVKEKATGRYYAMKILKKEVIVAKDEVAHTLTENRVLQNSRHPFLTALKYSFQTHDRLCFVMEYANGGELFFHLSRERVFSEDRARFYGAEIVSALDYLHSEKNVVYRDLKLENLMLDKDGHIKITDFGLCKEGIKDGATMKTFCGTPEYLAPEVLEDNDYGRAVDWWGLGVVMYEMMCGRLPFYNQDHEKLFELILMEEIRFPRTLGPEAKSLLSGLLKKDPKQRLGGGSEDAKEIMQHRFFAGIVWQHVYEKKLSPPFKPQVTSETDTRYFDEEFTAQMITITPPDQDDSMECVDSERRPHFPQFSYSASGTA
# Counter-ions that a name gives are not always drawn. The list shows a part of the results. The calls rarely recur for the same compound in another form.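 Kinases were expressed as nanoluciferase fusions in K562 cells and luminescence was read every 4 h between 2 and 18 h as percent of control, DMSO set to 100% and a positive control to 0%. A time point counts as decreased when the signal drops significantly (2 sigma). The hit call is the authors' own, does not follow from the count of time points alone, and its rule is not shown.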
# Assays:
# Details in all cases: K562; 2-18 h
# RET = RET (UniProt P07949); assay: kinase-Nluc reporter destabilization hit call (1 = scored as downregulated) (binary); higher = compound decreases kinase abundance
# [1] = target: RET_M918T (clone: RET_mut) (UniProt P07949); assay: as above
# RIOK1 = RIOK1 (UniProt Q9BRS2); assay: as above
# RIPK1 = RIPK1 (UniProt Q13546); assay: as above
# RIPK2 = RIPK2 (UniProt O43353); assay: as above
# ROR2 = ROR2 (UniProt Q01974); assay: as above
# RPS6KA1 = RPS6KA1 (UniProt Q15418); assay: as above
# SPHK1 = SPHK1 (UniProt Q9NYA1); assay: as above
# SRC = SRC (UniProt P12931); assay: as above
# STK24 = STK24 (UniProt Q9Y6E0); assay: as above
# STK38 = STK38 (UniProt Q15208); assay: as above
# SYK = SYK (UniProt P43405); assay: as above
# TEC = TEC (UniProt P42680); assay: as above
# TYK2 = TYK2 (UniProt P29597); assay: as above
# ULK3 = ULK3 (UniProt Q6PHR2); assay: as above
# YES1 = YES1 (UniProt P07947); assay: as above
# ZAK = ZAK (UniProt Q9NYL2); assay: as above
# ZAP70 = ZAP70 (UniProt P43403); assay: as above
# ABL1 = ABL1 (UniProt P00519); assay: number of time points (of 5) at which kinase-Nluc abundance scored as decreased, DMSO-normalised (count); higher = more persistent destabilization
# AKT1 = AKT1 (UniProt P31749); assay: as above
SMILES,kinase-Nluc reporter destabilization hit call (RET),kinase-Nluc reporter destabilization hit call [1],kinase-Nluc reporter destabilization hit call (RIOK1),kinase-Nluc reporter destabilization hit call (RIPK1),kinase-Nluc reporter destabilization hit call (RIPK2),kinase-Nluc reporter destabilization hit call (ROR2),kinase-Nluc reporter destabilization hit call (RPS6KA1),kinase-Nluc reporter destabilization hit call (SPHK1),kinase-Nluc reporter destabilization hit call (SRC),kinase-Nluc reporter destabilization hit call (STK24),kinase-Nluc reporter destabilization hit call (STK38),kinase-Nluc reporter destabilization hit call (SYK),kinase-Nluc reporter destabilization hit call (TEC),kinase-Nluc reporter destabilization hit call (TYK2),kinase-Nluc reporter destabilization hit call (ULK3),kinase-Nluc reporter destabilization hit call (YES1),kinase-Nluc reporter destabilization hit call (ZAK),kinase-Nluc reporter destabilization hit call (ZAP70),number of time points (ABL1),number of time points (AKT1)
O=C1NCCc2[nH]c(-c3ccnc(-c4cnc5ccccc5c4)c3)cc21 (10 µM),inactive: 0,inactive: 0,inactive: 0,inactive: 0,inactive: 0,inactive: 0,inactive: 0,inactive: 0,inactive: 0,inactive: 0,inactive: 0,inactive: 0,inactive: 0,inactive: 0,inactive: 0,inactive: 0,inactive: 0,inactive: 0,0,0
Cc1cc(N2CCOCC2)cc2[nH]c(-c3c(NC[C@@H](O)c4cccc(Cl)c4)cc[nH]c3=O)nc12 (10 µM),,,inactive: 0,inactive: 0,inactive: 0,inactive: 0,inactive: 0,inactive: 0,inactive: 0,inactive: 0,inactive: 0,,inactive: 0,inactive: 0,inactive: 0,inactive: 0,inactive: 0,inactive: 0,4,0
Cc1c[nH]c2nccc(Oc3c(F)cc(Nc4cc(Cl)nc(N)n4)cc3F)c12 (10 µM),inactive: 0,inactive: 0,inactive: 0,inactive: 0,inactive: 0,inactive: 0,inactive: 0,inactive: 0,inactive: 0,inactive: 0,inactive: 0,inactive: 0,inactive: 0,inactive: 0,inactive: 0,inactive: 0,,inactive: 0,2,0
CC(C)(C)c1cc(NC(=O)Nc2ccc(-c3cn4c(n3)sc3cc(OCCN5CCOCC5)ccc34)cc2)no1 [Quizartinib] (10 µM),inactive: 0,inactive: 0,inactive: 0,,inactive: 0,inactive: 0,inactive: 0,inactive: 0,inactive: 0,inactive: 0,inactive: 0,inactive: 0,inactive: 0,inactive: 0,inactive: 0,inactive: 0,inactive: 0,inactive: 0,4,0
C[C@]1(O)C[C@@H](c2nc(-c3ccc4ccc(-c5ccccc5)nc4c3)c3c(N)nccn32)C1 [Linsitinib] (2.5 µM),inactive: 0,inactive: 0,inactive: 0,inactive: 0,inactive: 0,inactive: 0,inactive: 0,inactive: 0,inactive: 0,inactive: 0,inactive: 0,,inactive: 0,inactive: 0,inactive: 0,inactive: 0,inactive: 0,inactive: 0,0,0
COc1ccc(NC(=O)N2CCN(c3nc(N)nc4c3cnn4C)[C@@H](C)C2)c(C)c1 (10 µM),inactive: 0,inactive: 0,inactive: 0,inactive: 0,inactive: 0,inactive: 0,inactive: 0,inactive: 0,inactive: 0,inactive: 0,inactive: 0,inactive: 0,inactive: 0,inactive: 0,inactive: 0,inactive: 0,inactive: 0,inactive: 0,0,0
COc1nccc(-c2c(-c3ccc(F)cc3)ncn2C2CCC(O)CC2)n1 (stereo not given) (10 µM),,,inactive: 0,inactive: 0,inactive: 0,inactive: 0,inactive: 0,inactive: 0,inactive: 0,inactive: 0,inactive: 0,inactive: 0,inactive: 0,inactive: 0,inactive: 0,inactive: 0,inactive: 0,inactive: 0,0,0
CCN(CCCOc1ccc2c(Nc3cc(CC(=O)Nc4cccc(F)c4)[nH]n3)ncnc2c1)CCOP(=O)(O)O [Barasertib] (10 µM),inactive: 0,inactive: 0,inactive: 0,inactive: 0,inactive: 0,inactive: 0,inactive: 0,inactive: 0,inactive: 0,inactive: 0,inactive: 0,inactive: 0,inactive: 0,inactive: 0,inactive: 0,inactive: 0,inactive: 0,inactive: 0,0,0
CN1CCC(Nc2ncc3ncnc(Nc4ccc(F)c(Cl)c4)c3n2)CC1 [Falnidamol] (10 µM),inactive: 0,inactive: 0,inactive: 0,inactive: 0,inactive: 0,inactive: 0,inactive: 0,inactive: 0,inactive: 0,inactive: 0,inactive: 0,inactive: 0,inactive: 0,inactive: 0,inactive: 0,inactive: 0,inactive: 0,inactive: 0,0,0
CCOc1cc2ncc(-c3cc(N)nc(F)c3)n2cc1S(=O)(=O)C(C)(C)C (10 µM),inactive: 0,inactive: 0,inactive: 0,inactive: 0,,inactive: 0,inactive: 0,inactive: 0,inactive: 0,inactive: 0,inactive: 0,inactive: 0,inactive: 0,inactive: 0,inactive: 0,inactive: 0,inactive: 0,inactive: 0,0,0
Oc1ccc(-c2nc(-c3ccc(F)cc3)c(-c3ccncc3)[nH]2)cc1 (2.5 µM),inactive: 0,inactive: 0,inactive: 0,inactive: 0,inactive: 0,inactive: 0,inactive: 0,inactive: 0,inactive: 0,inactive: 0,inactive: 0,inactive: 0,inactive: 0,inactive: 0,inactive: 0,inactive: 0,inactive: 0,inactive: 0,0,0
CC(C)(C#N)c1ccc(N2C(=O)OCc3cnc4ccc(-c5cnc6ccccc6c5)cc4c32)cc1 (2.5 µM),inactive: 0,inactive: 0,inactive: 0,inactive: 0,inactive: 0,inactive: 0,inactive: 0,inactive: 0,inactive: 0,inactive: 0,inactive: 0,inactive: 0,inactive: 0,inactive: 0,inactive: 0,inactive: 0,inactive: 0,inactive: 0,0,0
Cn1c(=O)n(-c2ccc(C(C)(C)C#N)cc2)c2c3cc(-c4cnc5ccccc5c4)ccc3ncc21 [Dactolisib (Tosylate)] (10 µM),inactive: 0,active: 1,inactive: 0,inactive: 0,inactive: 0,inactive: 0,inactive: 0,inactive: 0,inactive: 0,inactive: 0,inactive: 0,inactive: 0,inactive: 0,inactive: 0,inactive: 0,inactive: 0,inactive: 0,inactive: 0,5,0
c1cc(OCCN2CCCCC2)cc(-c2n[nH]c3ccc(-c4nnc[nH]4)cc23)c1 [CC-401 (hydrochloride)] (10 µM),inactive: 0,inactive: 0,inactive: 0,inactive: 0,inactive: 0,inactive: 0,inactive: 0,inactive: 0,inactive: 0,inactive: 0,inactive: 0,inactive: 0,inactive: 0,inactive: 0,inactive: 0,inactive: 0,inactive: 0,inactive: 0,0,0
CN(C)C(=O)/C(C#N)=C/c1ccc(-c2nc3cnc4[nH]ccc4c3n2C2CCCCC2)o1 (10 µM),inactive: 0,inactive: 0,inactive: 0,inactive: 0,inactive: 0,inactive: 0,inactive: 0,inactive: 0,inactive: 0,inactive: 0,inactive: 0,inactive: 0,inactive: 0,inactive: 0,inactive: 0,inactive: 0,inactive: 0,inactive: 0,0,0
O=c1c(-c2ccc(O)cc2)coc2cc(O)cc(O)c12 [Genistein] (10 µM),inactive: 0,inactive: 0,inactive: 0,inactive: 0,inactive: 0,inactive: 0,inactive: 0,inactive: 0,inactive: 0,inactive: 0,inactive: 0,,inactive: 0,inactive: 0,inactive: 0,inactive: 0,inactive: 0,inactive: 0,0,0
CC(C)C(=O)Nc1ncc(-c2cc(C(F)F)nn2-c2c(Cl)cccc2Cl)s1 (10 µM),inactive: 0,inactive: 0,inactive: 0,inactive: 0,inactive: 0,inactive: 0,inactive: 0,active: 1,inactive: 0,inactive: 0,inactive: 0,inactive: 0,inactive: 0,active: 1,inactive: 0,inactive: 0,inactive: 0,inactive: 0,0,0
CCN1CCN(Cc2ccc(C(=O)Nc3ccc(C)c(Oc4ccc5c(c4)CC(=O)N5)c3)cc2C(F)(F)F)CC1 (2.5 µM),inactive: 0,inactive: 0,inactive: 0,inactive: 0,inactive: 0,inactive: 0,inactive: 0,inactive: 0,inactive: 0,inactive: 0,inactive: 0,inactive: 0,inactive: 0,inactive: 0,inactive: 0,inactive: 0,inactive: 0,inactive: 0,2,1
O=c1oc2c(C3OCCCO3)c(O)ccc2c2c1CNCC2 (10 µM),inactive: 0,inactive: 0,inactive: 0,inactive: 0,inactive: 0,inactive: 0,inactive: 0,inactive: 0,inactive: 0,inactive: 0,inactive: 0,inactive: 0,inactive: 0,inactive: 0,inactive: 0,inactive: 0,inactive: 0,inactive: 0,0,0

# 3 compounds already listed, ordered by molecular weight, descending.
SMILES,kinase-Nluc reporter destabilization hit call (RET),kinase-Nluc reporter destabilization hit call [1],kinase-Nluc reporter destabilization hit call (RIOK1),kinase-Nluc reporter destabilization hit call (RIPK1),kinase-Nluc reporter destabilization hit call (RIPK2),kinase-Nluc reporter destabilization hit call (ROR2),kinase-Nluc reporter destabilization hit call (RPS6KA1),kinase-Nluc reporter destabilization hit call (SPHK1),kinase-Nluc reporter destabilization hit call (SRC),kinase-Nluc reporter destabilization hit call (STK24),kinase-Nluc reporter destabilization hit call (STK38),kinase-Nluc reporter destabilization hit call (SYK),kinase-Nluc reporter destabilization hit call (TEC),kinase-Nluc reporter destabilization hit call (TYK2),kinase-Nluc reporter destabilization hit call (ULK3),kinase-Nluc reporter destabilization hit call (YES1),kinase-Nluc reporter destabilization hit call (ZAK),kinase-Nluc reporter destabilization hit call (ZAP70),number of time points (ABL1),number of time points (AKT1)
CCN1CCN(Cc2ccc(C(=O)Nc3ccc(C)c(Oc4ccc5c(c4)CC(=O)N5)c3)cc2C(F)(F)F)CC1 (2.5 µM),inactive: 0,inactive: 0,inactive: 0,inactive: 0,inactive: 0,inactive: 0,inactive: 0,inactive: 0,inactive: 0,inactive: 0,inactive: 0,inactive: 0,inactive: 0,inactive: 0,inactive: 0,inactive: 0,inactive: 0,inactive: 0,2,1
CN(C)C(=O)/C(C#N)=C/c1ccc(-c2nc3cnc4[nH]ccc4c3n2C2CCCCC2)o1 (10 µM),inactive: 0,inactive: 0,inactive: 0,inactive: 0,inactive: 0,inactive: 0,inactive: 0,inactive: 0,inactive: 0,inactive: 0,inactive: 0,inactive: 0,inactive: 0,inactive: 0,inactive: 0,inactive: 0,inactive: 0,inactive: 0,0,0
O=C1NCCc2[nH]c(-c3ccnc(-c4cnc5ccccc5c4)c3)cc21 (10 µM),inactive: 0,inactive: 0,inactive: 0,inactive: 0,inactive: 0,inactive: 0,inactive: 0,inactive: 0,inactive: 0,inactive: 0,inactive: 0,inactive: 0,inactive: 0,inactive: 0,inactive: 0,inactive: 0,inactive: 0,inactive: 0,0,0
